The list shows a part of the results. Most values lie at the level of the controls, where differences are scatter.

Sequences of proteins named here, by UniProt entry; tags and fusion partners are left off. A change or cut given only in a name is not applied to a line headed by its entry.
UniProt P17987, whole entry: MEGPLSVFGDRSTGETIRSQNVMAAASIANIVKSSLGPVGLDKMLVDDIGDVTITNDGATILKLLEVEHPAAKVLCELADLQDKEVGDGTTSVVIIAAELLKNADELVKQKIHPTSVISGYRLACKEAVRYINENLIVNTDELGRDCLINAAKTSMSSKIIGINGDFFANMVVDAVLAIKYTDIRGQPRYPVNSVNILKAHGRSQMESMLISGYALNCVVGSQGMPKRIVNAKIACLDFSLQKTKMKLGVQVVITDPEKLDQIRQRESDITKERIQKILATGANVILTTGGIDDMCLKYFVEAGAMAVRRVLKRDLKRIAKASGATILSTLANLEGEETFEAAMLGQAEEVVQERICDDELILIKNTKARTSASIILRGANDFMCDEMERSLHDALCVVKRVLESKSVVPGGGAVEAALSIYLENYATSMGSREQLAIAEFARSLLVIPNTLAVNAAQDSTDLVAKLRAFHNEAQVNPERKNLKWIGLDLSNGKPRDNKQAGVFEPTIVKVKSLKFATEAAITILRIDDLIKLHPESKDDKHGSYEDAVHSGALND
UniProt P24534: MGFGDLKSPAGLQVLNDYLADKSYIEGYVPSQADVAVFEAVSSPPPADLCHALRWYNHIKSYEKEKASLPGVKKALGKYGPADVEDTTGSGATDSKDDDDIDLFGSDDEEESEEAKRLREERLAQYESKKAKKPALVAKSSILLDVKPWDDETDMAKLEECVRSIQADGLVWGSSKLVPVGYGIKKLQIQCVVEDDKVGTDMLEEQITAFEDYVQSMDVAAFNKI
UniProt P17752: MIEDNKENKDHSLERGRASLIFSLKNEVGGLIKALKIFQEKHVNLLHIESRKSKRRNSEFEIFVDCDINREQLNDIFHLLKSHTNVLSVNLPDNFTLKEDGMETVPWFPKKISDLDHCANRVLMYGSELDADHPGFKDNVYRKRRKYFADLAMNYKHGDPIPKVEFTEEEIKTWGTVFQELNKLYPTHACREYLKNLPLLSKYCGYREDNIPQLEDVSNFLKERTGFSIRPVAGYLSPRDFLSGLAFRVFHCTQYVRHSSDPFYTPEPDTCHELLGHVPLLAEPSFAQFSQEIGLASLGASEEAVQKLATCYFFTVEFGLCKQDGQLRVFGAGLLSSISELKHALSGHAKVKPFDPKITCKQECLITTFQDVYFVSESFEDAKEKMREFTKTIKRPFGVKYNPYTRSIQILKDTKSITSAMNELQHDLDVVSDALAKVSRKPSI
UniProt P17275: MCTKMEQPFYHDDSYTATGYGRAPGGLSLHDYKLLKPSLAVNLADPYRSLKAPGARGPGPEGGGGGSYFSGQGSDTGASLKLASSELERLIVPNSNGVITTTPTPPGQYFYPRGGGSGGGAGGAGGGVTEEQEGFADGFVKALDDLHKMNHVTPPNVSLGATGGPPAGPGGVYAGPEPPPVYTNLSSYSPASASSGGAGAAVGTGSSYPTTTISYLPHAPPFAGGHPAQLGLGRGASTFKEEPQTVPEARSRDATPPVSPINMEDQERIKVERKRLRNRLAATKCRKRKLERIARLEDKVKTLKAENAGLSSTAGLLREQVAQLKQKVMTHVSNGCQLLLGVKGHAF
UniProt P17844: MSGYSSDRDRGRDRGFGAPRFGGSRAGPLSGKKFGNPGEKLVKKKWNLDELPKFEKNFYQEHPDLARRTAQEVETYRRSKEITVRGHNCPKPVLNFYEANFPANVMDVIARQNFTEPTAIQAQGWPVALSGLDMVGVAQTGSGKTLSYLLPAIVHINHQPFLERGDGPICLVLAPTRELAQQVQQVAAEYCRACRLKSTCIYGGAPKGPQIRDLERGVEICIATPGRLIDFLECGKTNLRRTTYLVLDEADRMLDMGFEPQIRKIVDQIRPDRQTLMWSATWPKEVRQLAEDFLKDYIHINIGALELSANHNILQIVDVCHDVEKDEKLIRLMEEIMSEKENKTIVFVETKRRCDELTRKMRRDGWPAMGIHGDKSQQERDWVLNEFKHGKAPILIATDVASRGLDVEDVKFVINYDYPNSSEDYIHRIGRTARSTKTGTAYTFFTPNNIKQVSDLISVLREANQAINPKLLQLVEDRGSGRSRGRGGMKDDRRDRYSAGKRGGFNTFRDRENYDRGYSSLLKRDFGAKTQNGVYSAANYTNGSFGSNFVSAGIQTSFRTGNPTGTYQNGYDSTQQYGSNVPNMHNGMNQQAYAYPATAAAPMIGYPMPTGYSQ
UniProt P15586: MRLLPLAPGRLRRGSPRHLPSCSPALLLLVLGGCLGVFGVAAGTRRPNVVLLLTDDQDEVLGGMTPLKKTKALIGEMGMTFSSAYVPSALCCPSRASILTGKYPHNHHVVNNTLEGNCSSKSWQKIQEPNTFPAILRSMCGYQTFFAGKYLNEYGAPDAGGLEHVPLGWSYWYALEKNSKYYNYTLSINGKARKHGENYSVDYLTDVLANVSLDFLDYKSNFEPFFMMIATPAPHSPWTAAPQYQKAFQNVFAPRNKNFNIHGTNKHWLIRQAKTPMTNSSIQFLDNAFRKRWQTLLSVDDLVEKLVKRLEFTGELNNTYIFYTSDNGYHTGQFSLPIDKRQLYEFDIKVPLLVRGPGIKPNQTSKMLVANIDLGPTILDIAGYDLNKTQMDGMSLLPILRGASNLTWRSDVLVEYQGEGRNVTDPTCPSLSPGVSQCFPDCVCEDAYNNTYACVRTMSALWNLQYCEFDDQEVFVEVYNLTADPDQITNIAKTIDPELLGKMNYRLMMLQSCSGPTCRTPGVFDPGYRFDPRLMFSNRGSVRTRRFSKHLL
UniProt P17028: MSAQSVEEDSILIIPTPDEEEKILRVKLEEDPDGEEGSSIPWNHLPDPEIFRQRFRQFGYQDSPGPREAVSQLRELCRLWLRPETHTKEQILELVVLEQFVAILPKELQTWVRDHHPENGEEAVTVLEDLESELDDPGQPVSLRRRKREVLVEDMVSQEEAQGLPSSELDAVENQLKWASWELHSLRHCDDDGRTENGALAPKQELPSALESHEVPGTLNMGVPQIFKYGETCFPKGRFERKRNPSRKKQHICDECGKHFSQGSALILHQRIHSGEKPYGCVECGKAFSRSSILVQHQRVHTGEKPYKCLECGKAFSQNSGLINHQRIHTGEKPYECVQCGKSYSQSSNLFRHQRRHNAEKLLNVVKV
UniProt P17707: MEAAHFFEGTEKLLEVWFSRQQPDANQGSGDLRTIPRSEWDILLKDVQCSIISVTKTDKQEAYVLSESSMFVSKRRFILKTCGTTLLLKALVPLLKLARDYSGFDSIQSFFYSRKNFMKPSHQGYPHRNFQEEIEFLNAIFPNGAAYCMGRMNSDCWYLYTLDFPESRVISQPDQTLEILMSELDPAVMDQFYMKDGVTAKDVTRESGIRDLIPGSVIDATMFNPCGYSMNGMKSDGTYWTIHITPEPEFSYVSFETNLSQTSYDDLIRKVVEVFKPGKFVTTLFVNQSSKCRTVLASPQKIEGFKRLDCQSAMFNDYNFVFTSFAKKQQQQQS

Compound in the test: Cc1nc(Nc2ncc(C(=O)Nc3c(C)cccc3Cl)s2)cc(N2CCN(CCO)CC2)n1 [dasatinib]
The test can be described thus: log2 fold change of tryptic peptide abundance, ligand vs vehicle (limited proteolysis) (log2 ratio); higher = more trypsin-susceptible (destabilized). The following applies: ligand concentration: 5 uM; sample: K562 cleared lysate.
Regarding “TCP1 (peptide sequence: DCLINAAK, peptide start residue: 146) (UniProt P17987)”, the log2 fold change is -0.1.

Consider “EEF1B2 (peptide sequence: LVPVGYGIKK, peptide start residue: 177) (UniProt P24534)”, for which the log2 fold change was -0.0552.

Turning to “UniProt P17752 (peptide sequence: EKMREFTK, peptide start residue: 384)”, the log2 fold change is -0.241.

Take “JUNB (peptide sequence: LASSELER, peptide start residue: 82) (UniProt P17275)”: the log2 fold change worked out at 0.0791.

For “DDX5 (peptide sequence: GGMKDDRR, peptide start residue: 487) (UniProt P17844)”, the log2 fold change is -0.434.

“GNS (peptide sequence: TIDPELLGK, peptide start residue: 494) (UniProt P15586)”: the log2 fold change is 0.0741.

“ZNF24 (peptide sequence: SYSQSSNLFR, peptide start residue: 343) (UniProt P17028)”: the log2 fold change was -0.177.

As for “AMD1 (peptide sequence: DVQCSIISVTK, peptide start residue: 46) (UniProt P17707)”, the log2 fold change is -0.866.

(Values after the supplement of paper PMC12819154, “High-throughput peptide-centric local stability assay extends protein–ligand identification to membrane proteins, tissues and bacteria” (Nature Structural & Molecular Biology, 2025).)
